A short description of the series: general procedure: Fmoc solid-phase peptide synthesis; 2-chlorotrityl chloride beads. To be noted: late stage modification step.

In turn, MA-Gly-Phe-Leu-Gly-PABA showed a step yield of 53%.

The values are drawn from US10532113B2 (Ramot at Tel-Aviv University Ltd., priority 2014, dated 2020).
